What all share (experiment): proximity labelling
The target in assay [1] is BirA*-RAB18 (UniProt Q9NP72).
For assay [2], the target named is BirA*-RAB18 (UniProt Q9NP72). This is another data set of the same source.
Assay [3] concerns the target BirA*-RAB18 (UniProt Q9NP72). This is another data set of the same source.

The chains behind the UniProt entries cited, without tags or fusion partners.
UniProt Q9NP72: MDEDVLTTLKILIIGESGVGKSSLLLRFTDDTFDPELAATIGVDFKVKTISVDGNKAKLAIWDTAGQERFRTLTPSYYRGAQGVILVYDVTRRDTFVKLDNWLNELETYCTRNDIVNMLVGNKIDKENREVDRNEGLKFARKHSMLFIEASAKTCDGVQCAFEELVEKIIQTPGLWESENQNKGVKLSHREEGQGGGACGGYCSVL

Read-outs that look alike come from different tables or passages of the source. Results are given in words; binding and its absence hold for the method and conditions named. Binding seen in cells or lysates may run through a third protein. Here binding means that the protein was enriched with, or labelled near, the bait; the list need not be complete. For part of these data: No binding means not detected with the bait.

B1: TRIM13 (protein, UniProt O60858 1-407)
chain: MELLEEDLTCPICCSLFDDPRVLPCSHNFCKKCLEGILEGSVRNSLWRPAPFKCPTCRKETSATGINSLQVNYSLKGIVEKYNKIKISPKMPVCKGHLGQPLNIFCLTDMQLICGICATRGEHTKHVFCSIEDAYAQERDAFESLFQSFETWRRGDALSRLDTLETSKRKSLQLLTKDSDKVKEFFEKLQHTLDQKKNEILSDFETMKLAVMQAYDPEINKLNTILQEQRMAFNIAEAFKDVSEPIVFLQQMQEFREKIKVIKETPLPPSNLPASPLMKNFDTSQWEDIKLVDVDKLSLPQDTGTFISKIPWSFYKLFLLILLLGLVIVFGPTMFLEWSLFDDLATWKGCLSNFSSYLTKTADFIEQSVFYWEQVTDGFFIFNERFKNFTLVVLNNVAEFVCKYKLL
For B1, the binding entry with BirA*-RAB18 [1] is “binds”.

B2: RAB3GAP2 (protein, UniProt Q9H2M9 1-1393)
chain: MACSIVQFCYFQDLQAARDFLFPHLREEILSGALRRDPSKSTDWEDDGWGAWEENEPQEPEEEGNTCKTQKTSWLQDCVLSLSPTNDLMVIAREQKAVFLVPKWKYSDKGKEEMQFAVGWSGSLNVEEGECVTSALCIPLASQKRSSTGRPDWTCIVVGFTSGYVRFYTENGVLLLAQLLNEDPVLQLKCRTYEIPRHPGVTEQNEELSILYPAAIVTIDGFSLFQSLRACRNQVAKAAASGNENIQPPPLAYKKWGLQDIDTIIDHASVGIMTLSPFDQMKTASNIGGFNAAIKNSPPAMSQYITVGSNPFTGFFYALEGSTQPLLSHVALAVASKLTSALFNAASGWLGWKSKHEEEAVQKQKPKVEPATPLAVRFGLPDSRRHGESICLSPCNTLAAVTDDFGRVILLDVARGIAIRMWKGYRDAQIGWIQTVEDLHERVPEKADFSPFGNSQGPSRVAQFLVIYAPRRGILEVWSTQQGPRVGAFNVGKHCRLLYPGYKIMGLNNVTSQSWQPQTYQICLVDPVSGSVKTVNVPFHLALSDKKSERAKDMHLVKKLAALLKTKSPNLDLVETEIKELILDIKYPATKKQALESILASERLPFSCLRNITQTLMDTLKSQELESVDEGLLQFCANKLKLLQLYESVSQLNSLDFHLDTPFSDNDLALLLRLDEKELLKLQALLEKYKQENTRTNVRFSDDKDGVLPVKTFLEYLEYEKDVLNIKKISEEEYVALGSFFFWKCLHGESSTEDMCHTLESAGLSPQLLLSLLLSVWLSKEKDILDKPQSICCLHTMLSLLSKMKVAIDETWDSQSVSPWWQQMRTACIQSENNGAALLSAHVGHSVAAQISNNMTEKKFSQTVLGADSEALTDSWEALSLDTEYWKLLLKQLEDCLILQTLLHSKGNTQTSKVSSLQAEPLPRLSVKKLLEGGKGGIADSVAKWIFKQDFSPEVLKLANEERDAENPDEPKEGVNRSFLEVSEMEMDLGAIPDLLHLAYEQFPCSLELDVLHAHCCWEYVVQWNKDPEEARFFVRSIEHLKQIFNAHVQNGIALMMWNTFLVKRFSAATYLMDKVGKSPKDRLCRRDVGMSDTAMTSFLGSCLDLLQILMEADVSRDEIQVPVLDTEDAWLSVEGPISIVELALEQKHIHYPLVEHHSILCSILYAVMRFSLKTVKPLSLFDSKGKNAFFKDLTSIQLLPSGEMDPNFISVRQQFLLKVVSAAVQAQHSATKVKDPTEEATPTPFGKDQDWPALAVDLAHHLQVSEDVVRRHYVGELYNYGVDHLGEEAILQVHDKEVLASQLLVLTGQRLAHALLHTQTKEGMELLARLPPTLCTWLKAMDPQDLQNTEVPIATTAKLVNKVIELLPEKHGQYGLALHLIEAVEAISLPSL
As to B2, the binding entry with BirA*-RAB18 [1] is listed as “binds”; in the assay with BirA*-RAB18 [2], “no binding (only in RAB3GAP1-null cells)”; with BirA*-RAB18 [3], “binds”.

B3: TMCO4 (endogenous) (protein, UniProt Q5TGY1 1-634)
chain: MAMWNRPCQRLPQQPLVAEPTAEGEPHLPTGRELTEANRFAYAALCGISLSQLFPEPEHSSFCTEFMAGLVQWLELSEAVLPTMTAFASGLGGEGADVFVQILLKDPILKDDPTVITQDLLSFSLKDGHYDARARVLVCHMTSLLQVPLEELDVLEEMFLESLKEIKEEESEMAEASRKKKENRRKWKRYLLIGLATVGGGTVIGVTGGLAAPLVAAGAATIIGSAGAAALGSAAGIAIMTSLFGAAGAGLTGYKMKKRVGAIEEFTFLPLTEGRQLHITIAVTGWLASGKYRTFSAPWAALAHSREQYCLAWEAKYLMELGNALETILSGLANMVAQEALKYTVLSGIVAALTWPASLLSVANVIDNPWGVCLHRSAEVGKHLAHILLSRQQGRRPVTLIGFSLGARVIYFCLQEMAQEKDCQGIIEDVILLGAPVEGEAKHWEPFRKVVSGRIINGYCRGDWLLSFVYRTSSVQLRVAGLQPVLLQDRRVENVDLTSVVSGHLDYAKQMDAILKAVGIRTKPGWDEKGLLLAPGCLPSEEPRQAAAAASSGETPHQVGQTQGPISGDTSKLAMSTDPSQAQVPVGLDQSEGASLPAAASPERPPICSHGMDPNPLGCPDCACKTQGPSTGLD
Take B3: in the assay with BirA*-RAB18 [1], the binding result is “binds”.

B4: SEC22A (endogenous) (protein, UniProt Q96IW7 1-307)
chain: MSMILSASVIRVRDGLPLSASTDYEQSTGMQECRKYFKMLSRKLAQLPDRCTLKTGHYNINFISSLGVSYMMLCTENYPNVLAFSFLDELQKEFITTYNMMKTNTAVRPYCFIEFDNFIQRTKQRYNNPRSLSTKINLSDMQTEIKLRPPYQISMCELGSANGVTSAFSVDCKGAGKISSAHQRLEPATLSGIVGFILSLLCGALNLIRGFHAIESLLQSDGDDFNYIIAFFLGTAACLYQCYLLVYYTGWRNVKSFLTFGLICLCNMYLYELRNLWQLFFHVTVGAFVTLQIWLRQAQGKAPDYDV
As for B4, the binding entry with BirA*-RAB18 [1] was “binds”.

B5: REEP4 (protein, UniProt Q9H6H4 1-257)
chain: MVSWMICRLVVLVFGMLCPAYASYKAVKTKNIREYVRWMMYWIVFALFMAAEIVTDIFISWFPFYYEIKMAFVLWLLSPYTKGASLLYRKFVHPSLSRHEKEIDAYIVQAKERSYETVLSFGKRGLNIAASAAVQAATKSQGALAGRLRSFSMQDLRSISDAPAPAYHDPLYLEDQVSHRRPPIGYRAGGLQDSDTEDECWSDTEAVPRAPARPREKPLIRSQSLRVVKRKPPVREGTSRSLKVRTRKKTVPSDVDS
Take B5: the binding entry with BirA*-RAB18 [1] is listed as “binds”.

B6: ZW10 (protein, UniProt O43264 1-779)
chain: MASFVTEVLAHSGRLEKEDLGTRISRLTRRVEEIKGEVCNMISKKYSEFLPSMQSAQGLITQVDKLSEDIDLLKSRIESEVRRDLHVSTGEFTDLKQQLERDSVVLSLLKQLQEFSTAIEEYNCALTEKKYVTGAQRLEEAQKCLKLLKSRKCFDLKILKSLSMELTIQKQNILYHLGEEWQKLIVWKFPPSKDTSSLESYLQTELHLYTEQSHKEEKTPMPPISSVLLAFSVLGELHSKLKSFGQMLLKYILRPLASCPSLHAVIESQPNIVIIRFESIMTNLEYPSPSEVFTKIRLVLEVLQKQLLDLPLDTDLENEKTSTVPLAEMLGDMIWEDLSECLIKNCLVYSIPTNSSKLQQYEEIIQSTEEFENALKEMRFLKGDTTDLLKYARNINSHFANKKCQDVIVAARNLMTSEIHNTVKIIPDSKINVPELPTPDEDNKLEVQKVSNTQYHEVMNLEPENTLDQHSFSLPTCRISESVKKLMELAYQTLLEATTSSDQCAVQLFYSVRNIFHLFHDVVPTYHKENLQKLPQLAAIHHNNCMYIAHHLLTLGHQFRLRLAPILCDGTATFVDLVPGFRRLGTECFLAQMRAQKGELLERLSSARNFSNMDDEENYSAASKAVRQVLHQLKRLGIVWQDVLPVNIYCKAMGTLLNTAISEVIGKITALEDISTEDGDRLYSLCKTVMDEGPQVFAPLSEESKNKKYQEEVPVYVPKWMPFKELMMMLQASLQEIGDRWADGKGPLAAAFSSSEVKALIRALFQNTERRAAALAKIK
For B6, the binding entry is “binds” with BirA*-RAB18 [1], “no binding (only in RAB3GAP1-null cells)” with BirA*-RAB18 [2] and “binds” in the assay with BirA*-RAB18 [3].

B7: BNIP1 (protein, UniProt Q12981 1-228)
chain: MAAPQDVHVRICNQEIVKFDLEVKALIQDIRDCSGPLSALTELNTKVKEKFQQLRHRIQDLEQLAKEQDKESEKQLLLQEVENHKKQMLSNQASWRKANLTCKIAIDNLEKAELLQGGDLLRQRKTTKESLAQTSSTITESLMGISRMMAQQVQQSEEAMQSLVTSSRTILDANEEFKSMSGTIQLGRKLITKYNRRELTDKLLIFLALALFLATVLYIVKKRLFPFL
Turning to B7, the binding entry in the assay with BirA*-RAB18 [1] was “binds”.

B8: C2CD2L/TMEM24 (protein, UniProt O14523 1-706)
chain: MDPGWGQRDVGWAALLILFAASLLTVFAWLLQYARGLWLARARGDRGPGPALAGEPAGSLRELGVWRSLLRLRATRAGAAEEPGVRGLLASLFAFKSFRENWQRAWVRALNEQACRNGSSIQIAFEEVPQLPPRASISHVTCVDQSEHTMVLRCQLSAEEVRFPVSVTQQSPAAVSMETYHVTLTLPPTQLEVNLEEIPGEGLLISWAFTDRPDLSLTVLPKLQARERGEEQVELSTIEELIKDAIVSTQPAMMVNLRACSAPGGLVPSEKPPMMPQAQPAIPRPNRLFLRQLRASHLGNELEGTEELCCVAELDNPMQQKWTKPARAGSEVEWTEDLALDLGPQSRELTLKVLRSSSCGDTELLGQATLPVGSPSRPLSRRQLCPLTPGPGKALGPAATMAVELHYEEGSPRNLGTPTSSTPRPSITPTKKIELDRTIMPDGTIVTTVTTVQSRPRIDGKLDSPSRSPSKVEVTEKTTTVLSESSGPSNTSHSSSRDSHLSNGLDPVAETAIRQLTEPSGRVAKKTPTKRSTLIISGVSKVPIAQDELALSLGYAASLEASVQDDAGTSGGPSSPPSDPPAMSPGPLDALSSPTSVQEADETTRSDISERPSVDDIESETGSTGALETRSLKDHKVSFLRSGTKLIFRRRPRQKEAGLSQSHDDLSNATATPSVRKKAGSFSRRLIKRFSFKSKPKANGNPSPQL
Take B8: the binding entry in the assay with BirA*-RAB18 [1] is on record as “binds”.
